Among the test systems are OR9K2 clone 1389; OR9Q1 A2V clone 1713; OR9Q2 C179R clone 1310; OR9Q2 clone 1177; OR9Q2 clone 1501; pseudo clone 1035; pseudo clone 1218; pseudo clone 1380; pseudo clone 1384; pseudo clone 1417.
What all share (assay): odorant receptor activation (CRE luciferase / Renilla) (fold of no-odor wells); higher = more activation
Common to all, as to conditions: 100 µM

Chains of the proteins cited; added tags and fusions are not shown. A line that says so, or that is headed by a name, gives the form on record, which may keep a tag or linker.
pseudo, as listed by the source: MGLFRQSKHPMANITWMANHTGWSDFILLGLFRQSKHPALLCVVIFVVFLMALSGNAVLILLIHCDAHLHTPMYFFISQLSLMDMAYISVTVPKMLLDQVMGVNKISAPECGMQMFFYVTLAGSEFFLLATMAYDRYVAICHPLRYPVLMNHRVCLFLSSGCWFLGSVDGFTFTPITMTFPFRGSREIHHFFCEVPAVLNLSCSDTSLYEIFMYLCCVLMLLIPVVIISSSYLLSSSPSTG

“And” between values parts separate entries of the source, which are not always exact repeats. Equal entries are not always repeated. The list shows a part of the results. Single wells; the ratio to wells without odorant was worked out here, and repeats agree poorly.

In the case of `CCC1(O)C2(C)CCC(C2)C1(C)C` (stereo not given) [2-ethylfenchol], the odorant receptor activation in the experiment with OR9K2 clone 1389 was determined as 1.36; in the experiment with OR9Q1 A2V clone 1713, 0.618; with OR9Q2 C179R clone 1310 it was 0.643; with OR9Q2 clone 1177, 0.951; with OR9Q2 clone 1501 it was 1.25; in the experiment on pseudo clone 1035, 2.83. The odorant receptor activation stood at 0.636 in the experiment with pseudo clone 1218, 0.954 in the experiment with pseudo clone 1380, 0.737 with pseudo clone 1384 and 0.693 in the experiment with pseudo clone 1417.
As for `CC(C)C(=O)O` [isobutyric acid], the odorant receptor activation in the experiment with OR9K2 clone 1389 was 0.918; with OR9Q1 A2V clone 1713, 1.92; in the experiment with OR9Q2 C179R clone 1310, 1.19 and 0.869; with OR9Q2 clone 1177, 0.979; in the experiment on OR9Q2 clone 1501, 0.744 and 0.947; with pseudo clone 1035 it was 1.05. The odorant receptor activation is 1.22 with pseudo clone 1218, 0.847 with pseudo clone 1380, 0.626 in the experiment with pseudo clone 1384 and 0.836 in the experiment on pseudo clone 1417.
Turning to `CC=Cc1ccc(O)c(OC)c1` [isoeugenol], the odorant receptor activation with OR9K2 clone 1389 was 1.73; in the experiment on OR9Q1 A2V clone 1713 it was 2.15; with OR9Q2 C179R clone 1310, 1.02 and 1.13; in the experiment with OR9Q2 clone 1177, 0.891; in the experiment with OR9Q2 clone 1501 it was 1.24 and 1.57; with pseudo clone 1035, 1.16. The odorant receptor activation with pseudo clone 1218 is 1.37; with pseudo clone 1380 it was 1.53; with pseudo clone 1384 it was 1.48; in the experiment on pseudo clone 1417, 1.24.
Regarding `COc1ccccc1O` [guaiacol], the odorant receptor activation with OR9K2 clone 1389 was 0.761; in the experiment on OR9Q1 A2V clone 1713, 0.724; in the experiment on OR9Q2 C179R clone 1310, 0.827 and 0.94; in the experiment with OR9Q2 clone 1177 it was 0.989; in the experiment on OR9Q2 clone 1501, 0.708 and 0.964; in the experiment on pseudo clone 1035 it was 1.76. For the same molecule, the odorant receptor activation with pseudo clone 1218 was 1.25; with pseudo clone 1380 it was 1.05; in the experiment with pseudo clone 1384, 0.884; in the experiment on pseudo clone 1417, 0.882.
Consider `C=CCc1ccc(OC)c(OC)c1` [eugenol methyl ether], for which the odorant receptor activation came to 1.79 in the experiment on OR9K2 clone 1389; 0.57 in the experiment with OR9Q1 A2V clone 1713; 1.12 in the experiment with OR9Q2 C179R clone 1310; 1.63 in the experiment with OR9Q2 clone 1177; 1.38 with OR9Q2 clone 1501; 1.19 with pseudo clone 1035. For the same molecule, the odorant receptor activation is 1.34 in the experiment with pseudo clone 1218, 1.45 in the experiment with pseudo clone 1380, 1.39 in the experiment on pseudo clone 1384 and 2.35 with pseudo clone 1417.
As to `CCCCO` [1-butanol], the odorant receptor activation with OR9K2 clone 1389 is 1.6; with OR9Q1 A2V clone 1713, 0.93; with OR9Q2 C179R clone 1310 it was 0.757; in the experiment on OR9Q2 clone 1177 it was 0.858; in the experiment with OR9Q2 clone 1501 it was 1.45; in the experiment on pseudo clone 1035, 1.98. The odorant receptor activation with pseudo clone 1218 was found to be 0.987; in the experiment on pseudo clone 1380, 0.82; with pseudo clone 1384, 1.5; in the experiment with pseudo clone 1417, 1.05.
`CCCCCC(=O)O` [caproic acid]: the odorant receptor activation in the experiment on OR9K2 clone 1389 was 0.221; in the experiment with OR9Q1 A2V clone 1713, 0.871; in the experiment on OR9Q2 C179R clone 1310, 0.759; in the experiment with OR9Q2 clone 1177 it was 1.07; in the experiment with OR9Q2 clone 1501, 1.2; in the experiment on pseudo clone 1035, 0.874. For the same molecule, the odorant receptor activation in the experiment on pseudo clone 1218 worked out at 0.984; in the experiment on pseudo clone 1380, 0.294; in the experiment on pseudo clone 1384, 0.155; in the experiment with pseudo clone 1417 it was 0.221.
`CC(C)C=O` [isobutyraldehyde]: the odorant receptor activation in the experiment on OR9K2 clone 1389 is 0.798; in the experiment on OR9Q1 A2V clone 1713 it was 1.33; with OR9Q2 C179R clone 1310, 0.984 and 0.979; in the experiment with OR9Q2 clone 1177 it was 1.1; in the experiment on OR9Q2 clone 1501, 0.905 and 0.976; in the experiment on pseudo clone 1035, 2.1. Further, the odorant receptor activation was determined as 1.38 in the experiment on pseudo clone 1218, 0.877 with pseudo clone 1380, 0.914 with pseudo clone 1384 and 0.869 in the experiment on pseudo clone 1417.
Turning to `CC(C)=CCCC(C)=CC=O` [citral], the odorant receptor activation with OR9K2 clone 1389 is 0.264; in the experiment with OR9Q1 A2V clone 1713, 1.1; in the experiment with OR9Q2 C179R clone 1310, 1.14; in the experiment with OR9Q2 clone 1177 it was 1.19; with OR9Q2 clone 1501 it was 1.28; with pseudo clone 1035, 1.37. In addition, the odorant receptor activation turned out to be 1.11 in the experiment with pseudo clone 1218, 0.316 in the experiment with pseudo clone 1380, 0.176 in the experiment with pseudo clone 1384 and 0.253 with pseudo clone 1417.
As to `CC1CCC(C(C)C)C(O)C1` (single isomer, unassigned; (+)) [(+)-menthol], the odorant receptor activation is 1.36 in the experiment with OR9K2 clone 1389; 0.756 in the experiment with OR9Q1 A2V clone 1713; 0.719 in the experiment with OR9Q2 C179R clone 1310; 1.04 in the experiment on OR9Q2 clone 1177; 1.21 with OR9Q2 clone 1501; 3.67 in the experiment on pseudo clone 1035. Moreover, the odorant receptor activation in the experiment with pseudo clone 1218 is 0.954; in the experiment with pseudo clone 1380, 0.692; with pseudo clone 1384, 0.771; in the experiment with pseudo clone 1417 it was 0.948.
Take `C=CCc1ccc(OC(C)=O)c(OC)c1` [eugenol acetate]: the odorant receptor activation turned out to be 1.86 in the experiment on OR9K2 clone 1389; 1.81 with OR9Q1 A2V clone 1713; 1.23 in the experiment with OR9Q2 C179R clone 1310; 1.8 in the experiment with OR9Q2 clone 1177; 1.64 with OR9Q2 clone 1501; 1.64 in the experiment on pseudo clone 1035. In addition, the odorant receptor activation with pseudo clone 1218 worked out at 1.47; in the experiment on pseudo clone 1380 it was 1.74; with pseudo clone 1384, 1.56; in the experiment on pseudo clone 1417, 2.38.
In the case of `CC(=O)OC(C)(C)C1CC=C(C)CC1` (stereo not given) [terpinyl acetate], the odorant receptor activation in the experiment with OR9K2 clone 1389 was found to be 0.931; in the experiment on OR9Q1 A2V clone 1713, 0.713; in the experiment on OR9Q2 C179R clone 1310 it was 0.808; in the experiment with OR9Q2 clone 1177, 1.22; in the experiment on OR9Q2 clone 1501, 1.04; in the experiment on pseudo clone 1035, 1.27. The odorant receptor activation in the experiment on pseudo clone 1218 came out at 1.07; with pseudo clone 1380, 1.11; with pseudo clone 1384, 1.02; in the experiment with pseudo clone 1417, 0.982.
In the case of `CCCCCCCC=CC=O` [2-decenal], the odorant receptor activation with OR9K2 clone 1389 was 2.88; with OR9Q1 A2V clone 1713, 0.915; in the experiment with OR9Q2 C179R clone 1310 it was 0.722; with OR9Q2 clone 1177, 0.83; with OR9Q2 clone 1501, 1.53; with pseudo clone 1035 it was 14.4. Also, the odorant receptor activation with pseudo clone 1218 turned out to be 1; in the experiment with pseudo clone 1380, 1.65; in the experiment on pseudo clone 1384, 0.908; with pseudo clone 1417 it was 1.19.
